Data reported in the supplement of paper PMC12067093, “Discovery and optimisation of a covalent ligand for TRIM25 and its application to targeted protein ubiquitination” (Chemical Science, 2025).
The list shows a part of the results.

Chains of the proteins cited; added tags and fusions are not shown. Lines headed by an entry give the natural chain unless they say otherwise; changes in a name come on top.
UniProt Q06203, whole entry, looked up: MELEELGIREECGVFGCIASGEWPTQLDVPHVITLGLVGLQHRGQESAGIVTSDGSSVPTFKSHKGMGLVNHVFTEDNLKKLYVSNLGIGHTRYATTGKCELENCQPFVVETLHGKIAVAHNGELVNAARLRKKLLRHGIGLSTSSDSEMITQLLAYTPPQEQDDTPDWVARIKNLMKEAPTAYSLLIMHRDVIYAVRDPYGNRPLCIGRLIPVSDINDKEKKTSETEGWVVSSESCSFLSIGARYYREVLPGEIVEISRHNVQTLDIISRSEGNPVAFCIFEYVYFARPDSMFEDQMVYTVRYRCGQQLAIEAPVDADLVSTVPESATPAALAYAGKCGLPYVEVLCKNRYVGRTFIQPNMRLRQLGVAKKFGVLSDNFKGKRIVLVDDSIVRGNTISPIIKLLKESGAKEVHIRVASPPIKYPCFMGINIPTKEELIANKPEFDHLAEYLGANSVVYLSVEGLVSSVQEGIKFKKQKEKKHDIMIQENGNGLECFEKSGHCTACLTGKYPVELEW
UniProt Q7Z3K3: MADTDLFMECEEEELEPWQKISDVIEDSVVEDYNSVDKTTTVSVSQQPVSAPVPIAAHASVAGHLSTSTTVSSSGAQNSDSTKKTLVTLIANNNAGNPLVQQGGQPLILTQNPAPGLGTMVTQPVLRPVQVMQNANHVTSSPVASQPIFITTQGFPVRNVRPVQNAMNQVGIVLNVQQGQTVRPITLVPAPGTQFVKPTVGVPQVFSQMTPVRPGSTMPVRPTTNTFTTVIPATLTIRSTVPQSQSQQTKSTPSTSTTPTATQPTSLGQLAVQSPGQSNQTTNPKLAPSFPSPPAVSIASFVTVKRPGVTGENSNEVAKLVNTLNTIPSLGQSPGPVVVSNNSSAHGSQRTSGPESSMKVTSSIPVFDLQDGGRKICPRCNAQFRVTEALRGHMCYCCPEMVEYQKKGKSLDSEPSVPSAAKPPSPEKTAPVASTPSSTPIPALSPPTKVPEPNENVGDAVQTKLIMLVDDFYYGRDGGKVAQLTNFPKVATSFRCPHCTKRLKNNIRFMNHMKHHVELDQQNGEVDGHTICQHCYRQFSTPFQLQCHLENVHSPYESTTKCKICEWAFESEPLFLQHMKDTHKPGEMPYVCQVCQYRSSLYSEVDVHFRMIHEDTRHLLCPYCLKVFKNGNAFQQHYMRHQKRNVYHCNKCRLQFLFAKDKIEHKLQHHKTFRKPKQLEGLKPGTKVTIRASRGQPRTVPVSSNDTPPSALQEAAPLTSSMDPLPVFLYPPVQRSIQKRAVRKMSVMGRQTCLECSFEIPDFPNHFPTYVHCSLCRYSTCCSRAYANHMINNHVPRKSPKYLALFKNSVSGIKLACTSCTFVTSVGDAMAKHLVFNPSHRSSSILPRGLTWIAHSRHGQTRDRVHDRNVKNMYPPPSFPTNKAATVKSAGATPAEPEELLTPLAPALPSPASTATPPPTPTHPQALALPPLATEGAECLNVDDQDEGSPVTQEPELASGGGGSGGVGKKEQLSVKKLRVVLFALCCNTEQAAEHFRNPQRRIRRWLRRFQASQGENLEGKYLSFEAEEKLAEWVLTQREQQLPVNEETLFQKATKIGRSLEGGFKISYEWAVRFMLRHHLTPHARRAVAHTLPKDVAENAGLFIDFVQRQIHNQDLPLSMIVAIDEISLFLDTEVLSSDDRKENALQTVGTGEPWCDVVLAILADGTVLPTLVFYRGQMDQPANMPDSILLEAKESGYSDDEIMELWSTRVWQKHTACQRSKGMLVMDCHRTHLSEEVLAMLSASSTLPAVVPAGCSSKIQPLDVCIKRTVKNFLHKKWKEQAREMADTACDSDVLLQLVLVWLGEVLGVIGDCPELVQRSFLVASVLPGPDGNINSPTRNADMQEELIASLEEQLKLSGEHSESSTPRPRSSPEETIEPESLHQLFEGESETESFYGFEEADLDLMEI
UniProt P49005: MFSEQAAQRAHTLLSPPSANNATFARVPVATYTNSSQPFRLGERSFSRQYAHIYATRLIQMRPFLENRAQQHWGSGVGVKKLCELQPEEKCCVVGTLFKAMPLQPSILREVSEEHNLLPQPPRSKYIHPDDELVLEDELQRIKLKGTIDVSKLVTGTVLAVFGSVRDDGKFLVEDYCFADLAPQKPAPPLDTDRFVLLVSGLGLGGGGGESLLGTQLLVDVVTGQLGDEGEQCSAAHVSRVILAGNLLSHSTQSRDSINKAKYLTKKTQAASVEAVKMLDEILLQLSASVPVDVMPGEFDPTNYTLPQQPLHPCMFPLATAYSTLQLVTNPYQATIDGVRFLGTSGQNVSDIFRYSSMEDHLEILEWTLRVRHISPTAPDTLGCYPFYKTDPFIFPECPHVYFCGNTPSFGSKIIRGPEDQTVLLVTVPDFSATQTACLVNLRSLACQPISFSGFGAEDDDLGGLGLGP
UniProt O15160, whole entry, looked up: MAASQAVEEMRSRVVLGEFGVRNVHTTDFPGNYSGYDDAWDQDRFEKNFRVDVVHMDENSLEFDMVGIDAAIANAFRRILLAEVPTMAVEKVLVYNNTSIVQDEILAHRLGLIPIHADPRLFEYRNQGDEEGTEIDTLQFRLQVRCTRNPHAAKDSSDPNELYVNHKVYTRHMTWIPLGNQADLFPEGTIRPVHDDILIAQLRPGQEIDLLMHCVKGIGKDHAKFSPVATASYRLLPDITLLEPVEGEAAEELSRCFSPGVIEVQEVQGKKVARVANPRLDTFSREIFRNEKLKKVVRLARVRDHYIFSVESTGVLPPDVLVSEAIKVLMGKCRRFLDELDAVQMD
UniProt P28340: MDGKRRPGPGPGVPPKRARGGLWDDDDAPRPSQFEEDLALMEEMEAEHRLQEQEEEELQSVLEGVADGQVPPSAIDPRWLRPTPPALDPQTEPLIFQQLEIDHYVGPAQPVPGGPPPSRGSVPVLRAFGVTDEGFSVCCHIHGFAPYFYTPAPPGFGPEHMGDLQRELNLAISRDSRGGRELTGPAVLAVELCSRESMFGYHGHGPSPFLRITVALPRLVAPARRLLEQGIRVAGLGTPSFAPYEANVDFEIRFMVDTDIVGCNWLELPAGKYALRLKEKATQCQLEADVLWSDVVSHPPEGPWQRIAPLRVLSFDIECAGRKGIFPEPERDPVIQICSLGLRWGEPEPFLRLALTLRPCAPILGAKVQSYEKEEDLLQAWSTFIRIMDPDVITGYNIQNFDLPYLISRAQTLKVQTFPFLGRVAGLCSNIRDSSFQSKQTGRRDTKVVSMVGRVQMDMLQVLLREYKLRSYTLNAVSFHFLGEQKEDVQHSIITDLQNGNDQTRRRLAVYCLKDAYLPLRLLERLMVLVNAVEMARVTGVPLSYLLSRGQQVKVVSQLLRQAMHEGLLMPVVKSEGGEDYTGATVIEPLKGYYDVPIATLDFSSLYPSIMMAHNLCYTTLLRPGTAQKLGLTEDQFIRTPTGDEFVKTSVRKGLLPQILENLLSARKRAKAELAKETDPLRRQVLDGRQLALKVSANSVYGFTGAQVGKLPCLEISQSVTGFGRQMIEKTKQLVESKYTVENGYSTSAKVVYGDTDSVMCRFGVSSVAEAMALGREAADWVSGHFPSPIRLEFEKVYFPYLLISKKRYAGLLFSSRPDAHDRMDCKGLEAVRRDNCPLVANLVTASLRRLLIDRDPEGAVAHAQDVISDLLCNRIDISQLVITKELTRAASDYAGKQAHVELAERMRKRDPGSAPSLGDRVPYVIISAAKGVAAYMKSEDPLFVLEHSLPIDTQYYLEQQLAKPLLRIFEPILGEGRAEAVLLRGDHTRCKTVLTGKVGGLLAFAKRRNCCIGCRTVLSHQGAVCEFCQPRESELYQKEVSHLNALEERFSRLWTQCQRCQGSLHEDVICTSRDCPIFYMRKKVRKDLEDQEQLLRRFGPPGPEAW
UniProt Q15054: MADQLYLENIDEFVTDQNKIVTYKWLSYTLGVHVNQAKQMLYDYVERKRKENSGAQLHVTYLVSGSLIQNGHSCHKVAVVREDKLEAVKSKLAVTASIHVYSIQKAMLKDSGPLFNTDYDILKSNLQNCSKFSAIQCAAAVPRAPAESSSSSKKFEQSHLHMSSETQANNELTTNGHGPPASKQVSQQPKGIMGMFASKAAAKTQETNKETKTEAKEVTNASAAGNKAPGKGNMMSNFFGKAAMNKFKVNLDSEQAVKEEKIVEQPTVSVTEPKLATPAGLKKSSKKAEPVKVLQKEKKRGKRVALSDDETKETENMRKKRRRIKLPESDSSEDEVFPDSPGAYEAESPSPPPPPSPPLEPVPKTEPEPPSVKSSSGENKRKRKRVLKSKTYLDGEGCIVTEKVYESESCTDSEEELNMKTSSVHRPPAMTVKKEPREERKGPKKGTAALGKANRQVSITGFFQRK
UniProt O43447: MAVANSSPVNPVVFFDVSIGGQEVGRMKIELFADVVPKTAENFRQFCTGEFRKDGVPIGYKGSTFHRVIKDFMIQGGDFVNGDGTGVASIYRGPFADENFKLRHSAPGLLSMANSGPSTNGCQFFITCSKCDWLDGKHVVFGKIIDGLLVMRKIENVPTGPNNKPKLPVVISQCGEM
UniProt P09884: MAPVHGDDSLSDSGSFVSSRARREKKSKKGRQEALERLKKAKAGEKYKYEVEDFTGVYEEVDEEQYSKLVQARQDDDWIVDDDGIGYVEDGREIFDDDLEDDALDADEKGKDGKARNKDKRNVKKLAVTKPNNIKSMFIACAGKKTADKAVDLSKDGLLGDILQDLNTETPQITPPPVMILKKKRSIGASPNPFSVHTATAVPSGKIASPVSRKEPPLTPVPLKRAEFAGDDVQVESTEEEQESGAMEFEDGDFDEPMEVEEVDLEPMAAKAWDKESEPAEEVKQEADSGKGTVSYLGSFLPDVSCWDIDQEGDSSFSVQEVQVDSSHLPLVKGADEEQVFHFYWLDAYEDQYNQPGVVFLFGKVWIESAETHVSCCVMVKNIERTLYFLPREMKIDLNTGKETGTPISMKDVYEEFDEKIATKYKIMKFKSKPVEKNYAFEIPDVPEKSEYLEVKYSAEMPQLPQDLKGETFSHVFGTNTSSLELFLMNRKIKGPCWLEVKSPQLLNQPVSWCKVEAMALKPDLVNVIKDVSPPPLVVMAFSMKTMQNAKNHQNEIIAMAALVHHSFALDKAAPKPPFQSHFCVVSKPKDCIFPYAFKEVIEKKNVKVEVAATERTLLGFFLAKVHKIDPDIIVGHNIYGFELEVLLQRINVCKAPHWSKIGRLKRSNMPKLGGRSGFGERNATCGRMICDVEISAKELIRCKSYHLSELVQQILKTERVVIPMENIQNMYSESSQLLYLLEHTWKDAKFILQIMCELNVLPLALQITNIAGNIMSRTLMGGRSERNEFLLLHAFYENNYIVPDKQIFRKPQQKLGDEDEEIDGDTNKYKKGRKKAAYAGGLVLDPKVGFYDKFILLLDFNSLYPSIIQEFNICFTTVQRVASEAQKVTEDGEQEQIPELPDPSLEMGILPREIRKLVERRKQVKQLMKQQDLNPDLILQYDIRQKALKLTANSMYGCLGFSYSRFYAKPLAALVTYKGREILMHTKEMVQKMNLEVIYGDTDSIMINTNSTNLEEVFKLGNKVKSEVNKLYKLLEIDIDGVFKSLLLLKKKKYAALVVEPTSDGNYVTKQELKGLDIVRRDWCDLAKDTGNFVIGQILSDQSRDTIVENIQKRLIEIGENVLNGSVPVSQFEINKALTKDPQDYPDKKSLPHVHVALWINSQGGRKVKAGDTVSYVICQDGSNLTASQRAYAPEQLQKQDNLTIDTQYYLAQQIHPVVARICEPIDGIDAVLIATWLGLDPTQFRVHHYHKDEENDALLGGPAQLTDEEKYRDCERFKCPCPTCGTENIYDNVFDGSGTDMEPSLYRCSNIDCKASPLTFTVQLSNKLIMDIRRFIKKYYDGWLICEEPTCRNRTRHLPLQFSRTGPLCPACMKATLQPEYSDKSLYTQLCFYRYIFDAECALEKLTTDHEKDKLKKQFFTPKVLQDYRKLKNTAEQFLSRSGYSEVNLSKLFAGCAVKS
UniProt P23284: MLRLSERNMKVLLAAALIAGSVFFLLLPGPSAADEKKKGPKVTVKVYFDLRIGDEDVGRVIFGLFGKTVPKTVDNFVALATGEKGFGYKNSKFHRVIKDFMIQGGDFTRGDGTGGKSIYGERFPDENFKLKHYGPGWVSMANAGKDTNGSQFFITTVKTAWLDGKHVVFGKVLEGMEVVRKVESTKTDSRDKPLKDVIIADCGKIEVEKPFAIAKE
UniProt Q9BY77: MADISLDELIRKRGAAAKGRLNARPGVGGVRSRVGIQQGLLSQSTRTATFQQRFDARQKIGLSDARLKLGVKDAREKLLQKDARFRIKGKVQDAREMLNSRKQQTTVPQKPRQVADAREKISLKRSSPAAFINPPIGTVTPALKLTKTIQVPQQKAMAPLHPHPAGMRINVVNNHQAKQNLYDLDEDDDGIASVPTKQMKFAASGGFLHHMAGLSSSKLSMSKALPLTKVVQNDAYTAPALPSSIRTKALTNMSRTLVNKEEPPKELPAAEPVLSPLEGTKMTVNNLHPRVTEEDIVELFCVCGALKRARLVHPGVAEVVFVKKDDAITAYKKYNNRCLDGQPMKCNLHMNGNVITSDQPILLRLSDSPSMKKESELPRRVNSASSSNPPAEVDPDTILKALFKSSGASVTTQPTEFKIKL

Compound: Cc1cc(ccc1-c1ccccc1)C(=O)N1CCCN(CC1)C(=O)CCl [compound 10]
Experiment: probe-labelled cysteine peptide fold change vs DMSO (competition) (log2 fold change); higher = less target engagement (more negative = stronger competition)
Details: THP-1, incubation time: 4 h
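Further: competitive profiling in live THP-1 cells: cysteine peptides tagged with an iodoacetamide desthiobiotin (IA-DTB) probe, intensity after compound treatment relative to DMSO-treated cells.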

Row | Target | probe-labelled cysteine peptide fold change (10 µM) | probe-labelled cysteine peptide fold change (50 µM)
1 | POLR1B_Q9H9Y6_1098+1101_KYNCTLCSR (UniProt Q9H9Y6) | -0.0197 | -0.678
2 | POLR1E_Q9GZS1_276_CIWFLDTLIK (UniProt Q9GZS1) | 0.0886 | -0.0612
3 | PPAT_Q06203_207_DPYGNRPLCIGR (UniProt Q06203) | 0.124 | 0.161
4 | POP1_Q99575_242_CLLQDLSYYCCLELK (UniProt Q99575) | 0.0894 | 0.0383
5 | POGZ_Q7Z3K3_781+782_YSTCCSR (UniProt Q7Z3K3) | -0.0196 | -0.298
6 | POLD2_P49005_83_KLCELQPEEK (UniProt P49005) | -0.27 | -0.596
7 | POLR1C_O15160_256_CFSPGVIEVQEVQGKK (UniProt O15160) | -0.355 | -0.592
8 | PPAN_Q9NQ55_73_DCVAVAGPLGVTHFLILSK (UniProt Q9NQ55) | -0.357 | 0.496
9 | POLD1_P28340_512_LAVYCLK (UniProt P28340) | -0.0324 | 0.154
10 | POP1_Q99575_745_RSEVPCAPMPK (UniProt Q99575) | -0.238 | -0.307
11 | POLD3_Q15054_74_KENSGAQLHVTYLVSGSLIQNGHSCHK (UniProt Q15054) | -0.272 | 0.321
12 | POGZ_Q7Z3K3_1230_GMLVMDCHR (UniProt Q7Z3K3) | -0.055 | -0.17
13 | POLRMT_O00411_591_LLAEMLVQATQMPCSLDK (UniProt O00411) | 0.104 | -0.802
14 | POLB_P06746_178_KVDSEYIATVCGSFR (UniProt P06746) | -0.0366 | 0.166
15 | PPA1_Q15181_274_AIVDALPPPCESACTVPTDVDK (UniProt Q15181) | -0.0652 | -0.0405
16 | POR_P16435_566_EVGETLLYYGCR (UniProt P16435) | 0.0903 | 0.182
17 | PPIH_O43447_174_LPVVISQCGEM (UniProt O43447) | -0.325 | -0.0882
18 | PPIP5K1_Q6PFW1_627_SANMNGLLDSDGDSLSSCQHR (UniProt Q6PFW1) | -0.385 | -0.406
19 | PPIL4_Q8WUA2_40_YYNYCLIHNVQR (UniProt Q8WUA2) | 0.0828 | 0.501

Row | Target | probe-labelled cysteine peptide fold change (10 µM) | probe-labelled cysteine peptide fold change (50 µM)
20 | POLA1_P09884_1393_SLYTQLCFYR (UniProt P09884) | 0.158 | -0.14
21 | PPIB_P23284_202_DVIIADCGK (UniProt P23284) | -0.227 | 0.178
22 | POLR2B_P30876_357_EMLPHVGVSDFCETK (UniProt P30876) | -0.314 | -0.0479
23 | PPFIBP1_Q86W92_926_QEDGEEYVCPMELGQASGSASK (UniProt Q86W92) | -0.214 | -0.371
24 | POP1_Q99575_283_ALSGMCNIDTGLTFAAVHCLSGKR (UniProt Q99575) | -0.041 | -0.111
25 | POLD2_P49005_92_CCVVGTLFK (UniProt P49005) | 0.038 | -0.162
26 | POLD2_P49005_91_CCVVGTLFK (UniProt P49005) | -0.0879 | -0.0586
27 | POLD3_Q15054_137_FSAIQCAAAVPR (UniProt Q15054) | -0.187 | 0.016
28 | PPFIBP2_Q8ND30_837_KFDESTDYICPMEPSDGVSDSHR (UniProt Q8ND30) | -0.274 | -0.184
29 | POLA1_P09884_686_NATCGR (UniProt P09884) | 0.129 | -0.083
30 | POLD1_P28340_837_DNCPLVANLVTASLRR (UniProt P28340) | -0.23 | -0.589
31 | POLB_P06746_239_FMGVCQLPSK (UniProt P06746) | 0.161 | 0.104
32 | POLD1_P28340_873_DPEGAVAHAQDVISDLLCNR (UniProt P28340) | -0.126 | 0.17
33 | PPAT_Q06203_503+506_SGHCTACLTGK (UniProt Q06203) | 0.15 | -0.0929
34 | POLA2_Q14181_556_DVLGCVCVNPGR (UniProt Q14181) | 0.00896 | 0.156
35 | POLD1_P28340_873_LLIDRDPEGAVAHAQDVISDLLCNR (UniProt P28340) | 0.104 | -0.0328
36 | POLDIP3_Q9BY77_301_VTEEDIVELFCVCGALK (UniProt Q9BY77) | 0.0886 | -0.0165
37 | POMGNT1_Q8WZA1_490_ECIIPDVSR (UniProt Q8WZA1) | -0.0343 | 0.0625

A portion taken from the entries so far, for reference:
Row | Target | probe-labelled cysteine peptide fold change (10 µM) | probe-labelled cysteine peptide fold change (50 µM)
21 | PPIB_P23284_202_DVIIADCGK (UniProt P23284) | -0.227 | 0.178
22 | POLR2B_P30876_357_EMLPHVGVSDFCETK (UniProt P30876) | -0.314 | -0.0479
